Laboratory results: publication PMC12109034
No constants are given. Whether binding was seen depends on the method and setting. In cells and extracts the contact can be indirect. Binding can be weak; no strength is given. Where a sequence is shown, tags or fusion partners need not be part of it.

Chains of the proteins cited; added tags and fusions are not shown. Lines headed by an entry give the natural chain unless they say otherwise; changes in a name come on top.
UniProt A0A3B6PNT1: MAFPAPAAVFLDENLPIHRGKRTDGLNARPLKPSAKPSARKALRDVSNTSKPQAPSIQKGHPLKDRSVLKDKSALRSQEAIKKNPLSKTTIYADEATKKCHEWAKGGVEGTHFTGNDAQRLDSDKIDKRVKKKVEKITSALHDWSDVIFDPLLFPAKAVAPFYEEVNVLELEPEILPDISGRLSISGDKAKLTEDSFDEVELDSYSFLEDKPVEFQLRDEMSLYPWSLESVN

B1: At-I2-HA (protein, UniProt Q9LTK0 1-191)
chain: MTEPKRGRVQWDEANIVEIESNKPVRQKITEPKTPYHPMMDDDGSLSPRGRAFDECVDDMQRAEELRNVLNDAAASSSRNSSQGSGGGGWSSSDEEEEEADPMDQDEEGSGSGKNERFNAHRKAHYDEFRKVKELRSSGSFYEEEEEEDDGAKGSKSETTTNSRHTKGGNKELDATKTVSGTSSSSSPELI
B2: At-I2-nYFP (protein, UniProt Q9LTK0 1-191)
chain: B1 chain

Key:
[1] = biological target: TdPP1::GFP (durum wheat); assay: co-IP; GFP-Trap agarose beads precipitate TdPP1::GFP (or GFP alone) from extracts of co-infiltrated N. benthamiana leaves; 2 h at 4 °C, 0.2% Nonidet P-40, 150 mM NaCl, pH 7.5; anti-HA and anti-GFP blots
[2] = biological target: TdPP1-cYFP (durum wheat); assay: split reporter; BiFC with nYFP and cYFP fusions in N. benthamiana leaf epidermal cells, confocal microscopy two days after co-infiltration

Molecule	binding [1]	binding [2]
TdRL1::HA (from UniProt A0A3B6PNT1)	binds	
B1	binds	
B2		binds
